# Measurements published in PubChem BioAssay AID1259354 (Paczesny and Yang Labs, IUPUI and University of Michigan, 2018).
# Amino acid sequences for entries named in this document (tags omitted). A change or cut given only in a name is not applied to a line headed by its entry.
# UniProt Q01638: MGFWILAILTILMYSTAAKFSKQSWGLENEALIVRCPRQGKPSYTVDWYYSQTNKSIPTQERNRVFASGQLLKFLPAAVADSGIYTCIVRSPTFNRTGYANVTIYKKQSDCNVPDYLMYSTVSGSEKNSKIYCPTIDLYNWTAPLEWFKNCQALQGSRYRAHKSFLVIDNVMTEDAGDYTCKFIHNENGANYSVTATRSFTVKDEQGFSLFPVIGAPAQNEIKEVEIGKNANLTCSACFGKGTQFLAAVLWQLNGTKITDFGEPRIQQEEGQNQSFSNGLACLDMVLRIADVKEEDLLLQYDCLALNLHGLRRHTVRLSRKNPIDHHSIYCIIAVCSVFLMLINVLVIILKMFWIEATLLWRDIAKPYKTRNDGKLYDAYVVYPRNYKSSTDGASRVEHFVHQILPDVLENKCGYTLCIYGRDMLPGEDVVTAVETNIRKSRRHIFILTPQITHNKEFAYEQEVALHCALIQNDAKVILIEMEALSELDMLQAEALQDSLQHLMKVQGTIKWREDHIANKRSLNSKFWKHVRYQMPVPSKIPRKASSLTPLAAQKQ
# About 1,800 (2.3%) of roughly 78,000 compounds were called active. Inconclusive means that the source gave no clear call. Such entries were picked first, then a sample of the others. No stated cut-off is given here; in the data, active means inhibition above about 30%; inconclusive means mostly about 10% to 28%; inactive means weaker than that.
# Target: Interleukin-1 receptor-like 1 (Homo sapiens) (UniProt Q01638)
# Assay: blocks human ST2 binding to IL-33, primary screen, biochemical, AlphaLISA (AID 1259354)
# Conditions: AlphaLISA ST2-Fc/biotin-IL-33 interaction, 1 h; at 17 µM, stronger effect = higher value
row,Compound,inhibition
1,CCCCn1ncc(C)c1NC(=O)c1ccsc1,active: 31%
2,Cn1c(Br)nc2c1c(=O)n(Cc1ccccc1F)c(=O)n2C,inconclusive: 10%
3,CC1=C(C(=O)Nc2ccccn2)C(c2ccc(Cl)cc2Cl)C2=C(CCCC2=O)N1 (stereo not given),inconclusive: 14%
4,Cc1ccc(N(C)S(=O)(=O)c2ccc3c(c2)NC(=O)CC(=O)N3)cc1C,inactive
5,COc1ccc(NC(=O)CCC2CCCN(C(=O)c3sccc3C)C2)c(C)c1 (stereo not given),inconclusive: 13%
6,O=C(O)CCC(=O)Nc1ccc(Cl)cn1,inactive
7,Cc1cccc(/C(N)=N\OC(=O)N2c3ccccc3Sc3ccccc32)c1,inconclusive: 26%
8,O=c1c2c(nc(SCc3ccccc3F)n1-c1ccc(F)cc1)CCS2,inconclusive: 11%
9,Cc1cc(N2CCN(C)CC2)nc2ccc(NC(=O)CCC(=O)N3CCC(C(N)=O)CC3)cc12,inactive
10,CSc1ccc(-c2nc(Cn3ccnc3)c(C)o2)cc1,inconclusive: 21%
11,COC(=O)c1c(NC(=O)C(C)C)sc2c1CCC(C)C2 (stereo not given),inactive
12,COc1cc(OC)c(NC(=O)c2cc3c(=O)oc4ccccc4c3s2)cc1Cl,inactive
13,COc1ccccc1N1C(=O)C2C(c3ccccc3F)NC(Cc3ccccc3)(C(=O)O)C2C1=O (stereo not given),inconclusive: 13%
14,C[C@@H](Oc1ccc(Oc2cnc3ccc(Cl)cc3n2)cc1)C(=O)O,inconclusive: 15%
15,C=CCNC(=O)c1cc(-c2cccs2)on1,inconclusive: 13%
16,CSc1ccc(C2C(C(=O)Nc3ccc(C)cc3C)=C(C)Nc3nnnn32)cc1 (stereo not given),inconclusive: 10%
17,COc1ccc(NC(=O)C(=O)NC2CCCC2)c(OC)c1,inconclusive: 12%
18,Cn1c(SCC(=O)c2cccs2)nnc1-c1ccccc1,inactive
19,CN1CC2(CCCN(CCCn3cccc3)CC2)OC1=O (stereo not given),inconclusive: 18%
20,C=CCN1CC(C(=O)N2CCc3c(cc(-c4cccc5nc(C)ccc45)c(=O)n3CC3CC3)C2)CC1=O (stereo not given),inactive

# Structures listed so far that have a COOH group, in the order listed:
row,Compound,inhibition
6,O=C(O)CCC(=O)Nc1ccc(Cl)cn1,inactive
13,COc1ccccc1N1C(=O)C2C(c3ccccc3F)NC(Cc3ccccc3)(C(=O)O)C2C1=O (stereo not given),inconclusive: 13%
14,C[C@@H](Oc1ccc(Oc2cnc3ccc(Cl)cc3n2)cc1)C(=O)O,inconclusive: 15%

# Carrying on.

row,Compound,inhibition
1,Cc1cccc(C(=O)n2nc(C)c(Sc3ccc([N+](=O)[O-])cc3)c2C)c1,active: 30%
2,CCC(Sc1nc2c(sc3ccccc32)c(=O)n1CCCOC)C(=O)NC1CCCC1 (stereo not given),inconclusive: 10%
3,CCCOCCOC(=O)C1=C(C)NC2=C(C(=O)C(C(=O)OC)C(C)C2)C1c1cccc(Cl)c1 (stereo not given),inactive
4,COc1ccc(S(=O)(=O)Nc2c(C)cc(O)c(S(=O)(=O)c3ccccc3)c2C)cc1,inconclusive: 11%
5,COCC(=O)NC1(c2nnnn2-c2cccc(Cl)c2)CCCCC1,inconclusive: 14%
6,Cc1sc2ncn(CC(=O)N3CCCC3)c(=O)c2c1S(=O)(=O)N1CC(C)CC(C)C1 (stereo not given),inactive
7,O=C(O)c1cccc(CC2CCN(C(=O)C3CCOC3)CC2)c1 (stereo not given),inconclusive: 19%
8,O[C@@H]1CN(Cc2ccc3c(c2)OCO3)CC[C@H]1c1ccc2c(c1)OCO2,inconclusive: 21%
9,Cc1n[nH]c(C)c1S(=O)(=O)N1CCN(c2ccccc2F)CC1,inactive
10,Cc1ccc(CN2CCC(CNC(=O)C3(N)CCCC3)C2)cc1C (stereo not given),inactive
11,O=C(O)CSc1cccc2cccnc12,inconclusive: 13%
12,COc1ccc(NS(=O)(=O)c2cccc([N+](=O)[O-])c2)cc1,inconclusive: 16%
13,COc1cc(C=Nc2ccc(S(=O)(=O)Nc3ccccn3)cc2)cc(OC)c1OC,inactive
14,O=C(CCCN1C(=O)c2ccccc2C1=O)Nc1ccc(Br)cn1,inconclusive: 14%
15,O=C(O)Cc1ccc(NCc2ccc(Cl)cc2)cc1,inactive
16,COc1cc(CN2CCc3c([nH]c4ccccc34)C2)c([N+](=O)[O-])cc1OC,inactive
17,O=C(Nc1ccccn1)c1ccc2c(c1)C(=O)N(c1cccc([N+](=O)[O-])c1)C2=O,active: 30%
18,COc1ccc(C(=O)N=c2sc3ccccc3n2C)cc1OC,inconclusive: 14%
19,COc1ccc(C(O)=Cc2nc3ccc([N+](=O)[O-])cc3oc2=O)cc1OC,inactive
20,CC(C)n1cc(-c2c(-c3ccccc3)ncn2CCc2cnc[nH]2)cn1,inactive

row,Compound,inhibition
1,CC(=O)Nc1ccc(NC(=O)C2CC(=O)N(C3CCCCC3)C2)cc1 (stereo not given),inactive
2,CC(c1ccccc1)N1C(=O)CN(C2CCCCC2)C(=O)C1c1ccc(Cl)cc1 (stereo not given),inconclusive: 13%
3,Brc1ccc(-c2cnc(-c3ccccc3)o2)cc1,inconclusive: 10%
4,CC(C)NC[C@@H](O)c1ccc(O)c(O)c1,inconclusive: 10%
5,O=S1(=O)C=C(Sc2cccc3cccnc23)c2ccccc21,inconclusive: 19%
6,O=C(C1=C(O)C(=O)N(CCCN2CCOCC2)C1c1ccncc1)c1cccs1 (stereo not given),inconclusive: 10%
7,Cc1nc(N(C)C)nc(N2CCCC3(CC2)CN(C)C(=O)O3)c1C (stereo not given),inactive
8,Cc1nc2sc(C(c3ccccc3)N3CCC4(CC3)OCCO4)c(O)n2n1 (stereo not given),inconclusive: 20%
9,COc1ccc(S(=O)(=O)NCC2CCCN(Cc3cc(C(C)C)n[nH]3)C2)cc1 (stereo not given),inactive
10,O=C(C1CCc2ccccc2O1)N1CCC(Cn2cc(C3CC3)nn2)CC1 (stereo not given),inactive
11,c1cc(-c2ccc(CN(Cc3ccsc3)CC3CCCO3)s2)[nH]n1 (stereo not given),inconclusive: 18%
12,CC1=CC[C@@H]2CN(C(=O)CCn3cncn3)C[C@@H]2C1,inactive
13,CC(=O)c1ccc(C(=O)N(CCc2ccccc2)CC2CCCN(C)C2)s1 (stereo not given),inconclusive: 11%
14,Cc1ccsc1CN1CCN(c2ccc(F)cc2)CC1,inconclusive: 12%
15,O=C(NCCc1cccnc1)c1coc(COc2ccc(F)cc2Cl)n1,inconclusive: 18%
16,Cc1ccsc1C1(C(=O)N2C[C@@H]3[C@H](C2)[C@H]2CC[C@@H]3O2)CC1(C)C (stereo not given in full),inconclusive: 14%
17,CN(Cc1cc(C2CC2)n[nH]1)C(=O)c1cc(Cn2cnc3ccccc32)[nH]n1,inconclusive: 23%
18,Cc1ccc(NC(=O)c2ccc([N+](=O)[O-])o2)cc1,inconclusive: 14%
19,CC(=O)N1CCN(c2ccc(OC[C@H]3CO[C@](Cn4ccnc4)(c4ccc(Cl)cc4Cl)O3)cc2)CC1,inconclusive: 12%
20,Cc1cccc(OCC(=O)Nc2cc(Cl)ccc2OCc2cc(=O)n3oc(C)cc3n2)c1,inconclusive: 10%
